Test results as given in patent publication EP0467433 (dated 1992).

Test: general procedure: solution-phase peptide synthesis; azide coupling (isoamyl nitrite/HCl); ONp active esters

Substance: Boc-Met02-Glu(OtBu)-His-Phe-D-Lys(Boc)-Phe-OC10H21
- step yield: 91.7%
